From patent US11197911B2, “Peptidylic inhibitors targeting C9ORF72 hexanucleotide repeat-mediated neurodegeneration” (The Chinese University of Hong Kong, priority 2016, dated 2021)
Entries after “also recorded” stand apart in the source; their conditions may differ. Part of at least one peptide drawing is inferred or uncertain, most often the ends. No end group written: not given here.

Test system: (GGGGCC)66-expressing SK-N-MC cells
Experiment: LDH cytotoxicity assay, (GGGGCC)66-induced cell death
Format: cell-based
Settings: low concentration of peptide, 48 h
Description: SK-N-MC cells were kindly provided by Prof. Dobrila D. Rudnicki (Johns Hopkins University, USA). […] Leonard Petrucelli (Mayo Clinic, USA).
For IC50 detection, various amount of TAT-P3L, 0.1, 0.5, 1, 10, 50, 100, 500, 1,000 and 10,000 nM were added to individual culture wells after transfection. Forty eight hours after treatment, LDH enzyme activity in the cell culture medium was measured as described before. Experimental groups were normalized to the untransfected control. After normalization, data were analyzed using the dose response-inhibition curve (nonlinear regression-variable slope) to determine the IC50 value (Prism6 software, GraphPad Software, Inc.).

Sequence: YGRKKRRQRRRTFIKVPQNQNGKSKGYAF [TAT-RRM3-P1]
- effect on (GGGGCC)66-induced cell death (LDH): slightly inhibited cell death; also recorded: slightly suppressed
